# From PubChem BioAssay AID493014 (National Center for Advancing Translational Sciences (NCATS), 2011)
# Where “and” joins values, the source holds several entries; their conditions need not be identical. Identical values can stand only once. Among all 340,000 compounds or so, about 170 (0.05%) were called active. Inconclusive results, whose numbers are uncertain, are shown with a selection of clear calls. The call rests on the fitted dose curve; in most records, active means well fitted inhibition curve with a large enough effect in the signal ratio, with a control signal flat (not every such curve was filed as active); inconclusive means small, poorly fitted or top-dose-only effect, or effect the other way, or a change in a side signal; inactive means flat fitted curve, though single readings scatter; the % refers to the signal ratio. Potencies of inconclusive entries are doubtful fits and often do not repeat.
# Assay: qHTS Assay to Find Inhibitors of Chronic Active B-Cell Receptor Signaling;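 on activity change, negative = inhibition: plate controls were basal doxycycline-induced cells for no effect and cells given 10 µM MG132 for full effect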
# Conditions: ABC-DLBCL IkBa-CBG/CBR reporter, luminescence ratio (green luciferase fused to IkBa over red control in TMD8 lymphoma cells), 4 h; activity change, negative = inhibition: at 46.1 µM (top of the series) unless noted
# Summary of the method: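 Cell line TMD8 (human ABC DLBCL), stably expressing tet-inducible CBG68-IkBa fusion and CBR; IMDM/0.5% FBS; cpd up to 46 uM; dox induction, 4 h, 37C/5% CO2; dual luminescence; green/red ratio; MG132 control.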
# Potency means the concentration at half of the fitted maximal effect.
Compound,"activity change, negative = inhibition",Potency
CC(=O)c1c(C)[nH]c(C(=O)OCc2cccc(C)c2)c1C,inconclusive: 18.2%,
COc1ccc(-c2cc(-c3ccccc3)nc(SCC(=O)Nc3ncc(C)s3)c2C#N)cc1,inconclusive: 2.11%,
Cc1ccc(Cn2nnc3c(=O)[nH]c(C4CCN(S(=O)(=O)/C=C/c5ccccc5)CC4)nc32)cc1,inconclusive: 18.5%,
O=C(Nc1cccc(Cl)c1)Nc1cccc(C(=O)O)c1,,"inconclusive: 3.98 µM [falling, partial curve]"
CC(=O)NCCc1nc2cc(NC(=O)c3ccccc3C)ccc2n1C,,"inconclusive: 11.2 µM [falling, partial curve]"
CC(C)(C)NC[C@H](O)COc1nsnc1N1CCOCC1,inactive,
CC(=O)Nc1ccc(C(=O)CSc2nc3ccc(C)cc3[nH]2)cc1,inconclusive: 1.48%,
CC(C)(C)c1ccc(-c2n[nH]c(=S)n2Cc2ccccc2)cc1,,"inconclusive: 31.6 µM [falling, partial curve, poor fit]"
O=C(CSC1=Nc2ccccc2C2=NC(CC(=O)NCc3ccco3)C(=O)N12)NCc1ccco1 (stereo not given),inconclusive: 12.9%,
COc1cc(NC(=O)CN(C)Cc2ccc(OC(F)F)cc2)c(C)cc1[N+](=O)[O-],inconclusive: -9.29%,
Cc1sc2nc(SCC(=O)N(C)c3ccccc3)n(C)c(=O)c2c1C,inconclusive: 6.48%,
COc1ccc(/C=C(\NC(=O)c2cccs2)C(=O)Nc2ccccc2C)cc1OC,inconclusive: 2.85%,
Cc1nc(NC(=O)c2ccc(Br)o2)sc1C,inconclusive: 3.88%,
CC1=C(C(=O)Nc2ccc(CC(=O)NCc3ccc(OC(C)C)cc3)cc2)SCCO1,,"inconclusive: 0.794 µM [falling, full curve, poor fit]"
COc1ccc2cc3c(N)nn(C(=O)Cc4c[nH]c5ccccc45)c3nc2c1,inconclusive: 26.9%,
CCCc1nnc(N2C(=O)c3cccc4cccc(c34)C2=O)s1,inconclusive: 5.77%,
CSc1nsc(NC(=O)Cc2ccccc2)n1,,"inconclusive: 20.6 µM [falling, single point]"
CN(C)C(=O)CCc1ccc2c3c([nH]c2c1)[C@]1(CCC2CCCC2)[C@@H](C(=O)N2CCOCC2)C[C@H](CC(=O)NCc2ccco2)C(=O)N1CC3,inactive: -1.11%,
Cc1cccnc1NC(=O)/C=C/c1ccc2c(c1)OCO2,,"inconclusive: 20.6 µM [falling, partial curve]"
Cc1onc(-c2ccccc2)c1C(=O)N/N=C/c1cc2c(cc1Br)OCO2,inconclusive: -11.4%,
CC(C)N1C/C(=C/c2ccsc2)C(=O)/C(=C/c2ccsc2)C1,,"inconclusive: 2.31 µM [falling, partial curve, poor fit]"
O=C(COC(=O)c1cc(Br)ccc1O)Nc1ccc2c(c1)OCO2,,"inconclusive: 20.6 µM [falling, single point]"
Cc1ccc(Cl)cc1N1CCN(C(=O)CSc2nnc3n2C(C)(C)Cc2ccccc2-3)CC1,,"inconclusive: 29.1 µM [falling, single point]"
O=C(COC(=O)c1nc(Cl)ccc1Cl)c1ccc[nH]1,inconclusive: 5.61%,
CC1=Nc2ccccc2N=C(NC(=O)c2ccccc2)C1c1ccccc1 (stereo not given),,"inconclusive: 22.4 µM [falling, single point]"

Compound,"activity change, negative = inhibition",Potency
C[C@]12CCC(=O)C=C1CC[C@@H]1[C@@H]2[C@@H](O)C[C@@]2(C)[C@H]1CC[C@]2(O)C(=O)COC(=O)CCC(=O)O,inconclusive: -4.24% and inconclusive: 1.43%,
O=C(COC(=O)c1cccc([N+](=O)[O-])c1)Nc1ccc(Cl)cn1,,"inconclusive: 25.9 µM [falling, partial curve]"
COc1ccc(Br)cc1/C=N/NC(=O)CN1CCN(Cc2ccccc2)CC1,inconclusive: 1.86%,
CCn1cc(C(=O)NCc2ccccn2)c(=O)c2cc(F)c(N3CCN(C)CC3)cc21,inconclusive: 14.7%,
C/C(=N\Nc1nc(N2CCCCC2)nc(N2CCOCC2)n1)c1ccccc1O,inactive: -16.7%,
Cc1cc(=O)n2[nH]c(N)c(N=Nc3ccccc3)c2n1,,"inconclusive: 18.4 µM [falling, partial curve, poor fit]"
CCOC(=O)c1cnn(-c2cc(C)c3ccccc3n2)c1N,inconclusive: 14.2%,
CC(C(=O)N1CCN(C(=O)c2ccco2)CC1)N1C(=O)NC2(CCCCC2C)C1=O (stereo not given),inconclusive: 2.19%,
CS(=O)(=O)Cc1cccc(C(=O)NN(c2ccccc2)c2ccccc2)c1,inactive: -8.91%,
Nc1ccc(S(=O)(=O)Nc2nc(-c3ccccc3)cc(-c3ccccc3)n2)cc1,inconclusive: 5.53%,
CCn1c(SCC(=O)NCc2ccco2)nnc1-c1cccs1,inconclusive: -1.7%,
O=C(Nc1nnc(C2CC2)s1)c1ccncc1,,"inconclusive: 35.5 µM [falling, partial curve, poor fit]"
Cc1nn(C(=O)c2cc3sccc3[nH]2)c(C)c1C,inconclusive: 2.55%,
Cn1cc(Br)c(C(=O)n2cc(Br)cn2)n1,,"inconclusive: 2 µM [rising, full curve, poor fit]"
CCOC(=O)c1noc(C)c1C(=O)Nc1cccc(F)c1,,"inconclusive: 14.6 µM [rising, partial curve, poor fit]"
COC(=O)C1=C(C)N(Cc2ccccc2)C(=NCc2cc(OC)c(OC)c(OC)c2)N[C@H]1c1ccc(Br)cc1,inconclusive: -0.769%,"inconclusive: 5.01 µM [rising, partial curve, poor fit]"
CN(C)S(=O)(=O)c1cccc(NC(=O)c2ccc(-n3cncn3)c([N+](=O)[O-])c2)c1,inactive: -5.84%,
COc1ccccc1NC(=O)c1ccc(-n2cccn2)nc1,inconclusive: -2.62%,
CCCC(=O)Nc1ccc(C(=O)Nc2ccc([N+](=O)[O-])cc2OC)cc1,inconclusive: 10.2%,
Cc1ccc(-c2c[n+](Cc3ccc(Cl)cc3)c3n2CCC3)cc1,inconclusive: -2.94%,
COCCCNC(=S)N1CCN(C(c2ccccc2)c2ccccc2)CC1,inactive: -2.46%,
COc1cc(OC)cc(C(=O)NNC(=O)CCc2nc3ccccc3c(=O)[nH]2)c1,inactive: -5.76%,
O=C(Nc1nccs1)NC(C(F)(F)F)C(F)(F)F,inconclusive: -10.1%,
Cc1cccnc1CN1CCN(C(=O)c2cc(COc3ccc4ncccc4c3)on2)CC1,inactive: -13.1%,

Compound,"activity change, negative = inhibition",Potency
CCCn1nc(C(=O)OCC(=O)c2c(N)n(C)c(=O)n(C)c2=O)c2ccccc2c1=O,inconclusive: -6.44%,
O=C(Nc1ccc2ccccc2c1)c1onc2c1CCCC2,,"inconclusive: 35.5 µM [rising, single point]"
Cc1nn2c(NCCCN(C)C)c3c(nc2c1-c1ccccc1)CCCC3,inconclusive: -16.1%,
O=C(CN1C(=O)c2cccnc2Oc2ccc(Cl)cc21)Nc1ccc(F)cc1,,"inconclusive: 11.2 µM [falling, partial curve]"
CN(C)c1ccc(NC(=O)c2cccc(N3C(=O)C4C5C=CC(C5)C4C3=O)c2)cc1 (stereo not given),,"inconclusive: 5.62 µM [rising, single point]"
CC(=O)N(CCN(C)C)c1nc2cc3c(cc2s1)OCCO3,,"inconclusive: 5.01 µM [falling, partial curve, poor fit]"
COCCCn1c(SCC(=O)NC(C)(C)C)nnc1-c1cccs1,inconclusive: -3.23%,
COc1ccccc1C/C(N)=N/OC(=O)c1ccco1,inactive: 6.41%,
CCN1C(=O)S/C(=C/c2ccc(Sc3nc4ccccc4[nH]3)o2)C1=O,,"inconclusive: 16.4 µM [falling, partial curve]"
Cc1cccc(Nc2ncnc3nc[nH]c23)c1C,,"inconclusive: 20.6 µM [falling, partial curve]"
COc1ccc(OCCn2c(C)c(/C=N/n3cnnc3)c3ccccc32)cc1,,"inconclusive: 1.41 µM [falling, partial curve, poor fit]"
O=C(c1ccccc1)c1ccc(OCC(O)CN2CCN(S(=O)(=O)N3CCCCC3)CC2)cc1 (stereo not given),,"inconclusive: 29.1 µM [falling, single point]"
O=C(N/N=C/c1c[nH]c2ccccc12)c1ccc(Br)cc1,inactive: 4.25%,
O=C(Nc1sc2c(c1C(=O)O)CCCC2)c1ccccc1Cl,,"inconclusive: 25.1 µM [falling, partial curve]"
CCC(=O)N1CCc2cc(S(=O)(=O)NCCC(=O)N3CCN(c4cccc(C)c4)C(C)C3)ccc21 (stereo not given),inactive: 0.493%,
O=C(NCc1ccc2c(c1)OCO2)c1ccc(S(=O)(=O)N2CCCCC2)cc1,inconclusive: 9.14%,
Cc1nccc2oc(=O)c(NC(=O)c3ccc(Cl)cc3)cc12,inactive: -8.92%,
O=C1C2CCCCN2C(=O)N1CCCN1CCN(c2ccc(F)cc2)CC1 (stereo not given),inactive: 3.55%,
COc1ccc([N+](=O)[O-])cc1NC(=O)C(C)OC(=O)CC1CCCC1 (stereo not given),inactive: -4.67%,
C/C(N)=C(/C#N)C(=O)CSc1nnc(Nc2ccccc2)s1,inconclusive: -6.09%,
C[C@H](NC(=O)c1ccc(C(C)(C)C)cc1)C(=O)N1CCN(C/C=C/c2ccccc2)CC1,inactive: -12.3%,
O=C(NC1CCN(C(=O)N2c3ccccc3Sc3ccccc32)CC1)c1ccccc1F,,"inconclusive: 11.2 µM [falling, partial curve]"
O=C(CSc1nc(O)cc(=O)[nH]1)N1c2ccccc2Sc2ccccc21,inconclusive: -5.2%,
Cc1ccc(S(=O)(=O)N(C)C)cc1NC(=O)c1cc(S(=O)(=O)N2CCCCC2)ccc1N1CCOCC1,inactive: -7.53%,
